From patent US20160201132A1, “GENE EXPRESSION BIOMARKERS OF LAQUINIMOD RESPONSIVENESS” (Teva Pharmaceutical Industries Ltd., priority 2013, published 2016)
Further values from the same series stand in other lists.

Test system: PBMC of RRMS patients
Assay: Gene expression microarray analysis (HG-U133A-2) of PBMC from RRMS patients treated with LAQ, ancillary study to ALLEGRO
Type: in vivo, human
Conditions: for Fold-Change (1.0 vs. 0.0): one month of treatment
Excerpt: The goal of this ancillary study was to characterize gene expression changes and corresponding biological mechanisms induced in PBMC of RRMS patients by LAQ treatment. According to ALLEGRO clinical trial inclusion criteria, 25 patients were randomly assigned to receive LAQ (n=13, age 38.8±2.3 years, female/male ratio: 8/5) or placebo (n=12, age 37.2±3.4 years, female/male ratio: 8/4).
Peripheral blood samples were obtained from RRMS patients at baseline before start of LAQ treatment or placebo, after 0, 1, 6 and 24 month of treatment (visit 0, 1, 6 and 7 according to ALLEGRO clinical trial protocol correspondently) for gene microarray analysis.
Briefly, 1) Peripheral blood mononuclear cells (PBMC) were obtained from RRMS patients that participated in ALLEGRO and were treated daily with 0.6 mg LAQ or placebo. PBMC were subjected for gene expression analysis (HU-133A-2-Affymatrix arrays) at baseline and at 1 and 6 months of LAQ treatment; 2) Data was analyzed by Partek Genomics Solution software. Most informative genes (MIGs) were defined as those that differentiated between groups with p<0.01. Gene functional annotation, enrichment and pathway analysis were performed by Ingenuity software. For each time point, genes that changed in placebo group were excluded from further analysis; and 3) Verification of LAQ related mechanism was performed by Western blot.
PBMC were extracted from 15 ml peripheral blood, separated by Ficoll-Hypaque gradient. Total RNA was extracted using both Trizol (Invitrogen, USA) and Phase-Lock-Gel columns (Eppendorf, Germany) including a DNase digestion step. RNA integrity was assessed by RNA Experion automated electrophoresis system (Bio-Rad Laboratories, Hercules, Calif.).
Probe synthesis using 3 μg total RNA, hybridization, detection, and scanning was performed according to the standard Affymetrix, Inc. USA protocols; cDNA was synthesized using the Two-Cycle cDNA Synthesis Kit (Affymetrix, Inc., USA), and in-vitro transcription performed with the GeneChip IVT Labeling Kit (Affymetrix, Inc., USA). The biotin-labeled IVT-RNA was hybridized to HG-U133A-2 arrays containing 18,400 gene transcripts, each corresponding to 14,500 well-annotated human genes, washed in a GeneChip Fluidics Station 450 (Hewlett Packard, USA, GeneArray-™ scanner G2500A) and scanned according to the manufacturer's protocol (Affymetrix, Inc., USA).
Data analysis was performed on Partek Genomics Solution software (www.partek.com; Partek Incorporated, St. Louis, Mo.). Expression values were computed from raw CEL files by applying the Robust Multi-Chip Average (RMA) background correction algorithm. RMA correction included: 1) values background correction; 2) quintile normalization; 3) log 2 transformation; and 4) median polish summarization. The ANOVA, Repeated Measures and correlation analysis implicated in Partek software ware applied to evaluate LAQ effects. Most informative genes MIGs were defined as those that differentiated between experimental groups with p<0.01. All p-values were calculated for False Discovery Rate (FDR) multiple test correction at p=0.05.
Additionally, significance of individual genes was tested by parametric T-test and non parametric Mann-Whitney test using Bootstrapping approach based on repeated permutations of the data with 5% FDR for multiple testing.
Gene functional annotation, enrichment, and pathway analyses to identify the leading biological pathways that operated under LAQ treatment were performed by Ingenuity Pathways Analysis software (www.ingenuity.com).
ANOVA analysis was used to compare PBMC gene expression after 1, 6 or 24 month of LAQ treatment with baseline gene expression.
For each time point inventors performed analysis source of variation in dataset. (FIG. 1). Age, gender and batch effects were considered as confounders regarding LAQ or Placebo related changes. For each time point genes associated with Placebo effect were evaluated and excluded from further analysis. […]

CCN(C(=O)c1c(O)c2c(Cl)cccc2n(C)c1=O)c1ccccc1 [LAQ, 5-chloro-N-ethyl-4-hydroxy-1-methyl-2-oxo-N-phenyl-1,2-dihydroquinoline-3-carboxamide]
Fold-Change (1.0 vs. 0.0) (RFPL1 207934_at): −1.145
Fold-Change (1.0 vs. 0.0) (RGS6 210270_at): −1.251
Fold-Change (1.0 vs. 0.0) (RGS10 204319_s_at): −1.272
Fold-Change (4.0 vs. 0.0) (RHBDF2 expression, after six months of treatment): −1.213
Fold-Change (1.0 vs. 0.0) (RNF11 208924_at): −1.381
Fold-Change (4.0 vs. 0.0) (RNF122 expression, after six months of treatment): −1.201
Fold-Change (1.0 vs. 0.0) (RPA1 201529_s_at): −1.266
Fold-Change (4.0 vs. 0.0) (RREB1 expression, after six months of treatment): −1.219
Fold-Change (4.0 vs. 0.0) (RTDR1 expression, after six months of treatment): −1.206
Fold-Change (4.0 vs. 0.0) (SBF1 expression, after six months of treatment): −1.216
Fold-Change (4.0 vs. 0.0) (SCNN1B expression, after six months of treatment): −1.2182
Fold-Change (1.0 vs. 0.0) (SEMA3E 206941_x_at): −1.141
Fold-Change (1.0 vs. 0.0) (SEPT6 213666_at): −1.134
Fold-Change (4.0 vs. 0.0) (SERPINE1 expression, after six months of treatment): −1.22
Fold-Change (1.0 vs. 0.0) (SF3B1 211185_s_at): −1.0809
Fold-Change (1.0 vs. 0.0) (SH3TC2 219710_at): −1.228
Fold-Change (4.0 vs. 0.0) (SIGLEC8 expression, after six months of treatment): −1.197
Fold-Change (4.0 vs. 0.0) (SIX1 expression, after six months of treatment): −1.213
Fold-Change (4.0 vs. 0.0) (SLC1A3 expression, after six months of treatment): −1.205
Fold-Change (4.0 vs. 0.0) (SLC1A6 expression, after six months of treatment): −1.205
Fold-Change (4.0 vs. 0.0) (SLC4A3 expression, after six months of treatment): −1.221
Fold-Change (4.0 vs. 0.0) (SLC22A17 expression, after six months of treatment): −1.2
Fold-Change (4.0 vs. 0.0) (SLC23A2 expression, after six months of treatment): −1.22
Fold-Change (4.0 vs. 0.0) (SMCHD1 expression, after six months of treatment): −1.2201
Fold-Change (1.0 vs. 0.0) (SMOX 210357_s_at): −1.407
Fold-Change (1.0 vs. 0.0) (SNCA 211546_x_at): −1.351
Fold-Change (1.0 vs. 0.0) (SNX13 215820_x_at): −1.187
Fold-Change (1.0 vs. 0.0) (SPANXB1 /// SPANXB2 /// SPANXF1 220921_at): −1.169
Fold-Change (4.0 vs. 0.0) (SPANXC expression, after six months of treatment): −1.2054
Fold-Change (4.0 vs. 0.0) (SPOCK3 expression, after six months of treatment): −1.214
Fold-Change (4.0 vs. 0.0) (SST expression, after six months of treatment): −1.2007
Fold-Change (1.0 vs. 0.0) (SSX2IP 203016_s_at): −1.361
Fold-Change (4.0 vs. 0.0) (ST8SIA5 expression, after six months of treatment): −1.206
Fold-Change (1.0 vs. 0.0) (SUPT5H 201480_s_at): −1.103
Fold-Change (1.0 vs. 0.0) (TBC1D1 214013_s_at): −1.218
Fold-Change (1.0 vs. 0.0) (TEF 215673_at): −1.161
Fold-Change (4.0 vs. 0.0) (TEK expression, after six months of treatment): −1.214
Fold-Change (1.0 vs. 0.0) (TF 220109_at): −1.122
Fold-Change (4.0 vs. 0.0) (TLE4 expression, after six months of treatment): −1.202
Fold-Change (4.0 vs. 0.0) (TMEM151B expression, after six months of treatment): −1.209
Fold-Change (1.0 vs. 0.0) (TMSB15A 205347_s_at): −1.119
Fold-Change (4.0 vs. 0.0) (TNFRSF11A expression, after six months of treatment): −1.216
Fold-Change (1.0 vs. 0.0) (TNNC2 205388_at): −1.212
Fold-Change (1.0 vs. 0.0) (TPM1 206116_s_at): −1.496
Fold-Change (4.0 vs. 0.0) (TRIM3 expression, after six months of treatment): −1.202
Fold-Change (4.0 vs. 0.0) (TRIM15 expression, after six months of treatment): −1.203
Fold-Change (1.0 vs. 0.0) (TSC22D1 215111_s_at): −1.614
Fold-Change (1.0 vs. 0.0) (TSPAN32 220558_x_at): −1.156
Fold-Change (1.0 vs. 0.0) (TUBA4A 212242_at): −1.256
Fold-Change (1.0 vs. 0.0) (UBE2N 212751_at): −1.102
Fold-Change (4.0 vs. 0.0) (UCP3 expression, after six months of treatment): −1.199
Fold-Change (4.0 vs. 0.0) (UNKL expression, after six months of treatment): −1.2
Fold-Change (1.0 vs. 0.0) (USP47 221518_s_at): −1.076
Fold-Change (4.0 vs. 0.0) (VGLL1 expression, after six months of treatment): −1.203
Fold-Change (4.0 vs. 0.0) (VPS45 expression, after six months of treatment): −1.204
Fold-Change (4.0 vs. 0.0) (WNT7A expression, after six months of treatment): −1.212
Fold-Change (1.0 vs. 0.0) (XPNPEP1 208453_s_at): −1.191
Fold-Change (1.0 vs. 0.0) (XPNPEP1 209045_at): −1.197
Fold-Change (1.0 vs. 0.0) (ZBTB20 205383_s_at): −1.137
Fold-Change (1.0 vs. 0.0) (ZBTB33 214631_at): −1.135
Fold-Change (4.0 vs. 0.0) (ZCCHC14 expression, after six months of treatment): −1.22
Fold-Change (4.0 vs. 0.0) (ZNF323 expression, after six months of treatment): −1.209
Fold-Change (4.0 vs. 0.0) (gene A4GALT, after six months of LAQ): −1.136
Fold-Change (4.0 vs. 0.0) (gene ABCA4, after six months of LAQ): −1.253
Fold-Change (4.0 vs. 0.0) (gene ABCA6, after six months of LAQ): −1.138
Fold-Change (4.0 vs. 0.0) (gene ABCC1, six months of treatment): −1.153
Fold-Change (4.0 vs. 0.0) (gene ABCF3, after six months of LAQ): −1.13
Fold-Change (4.0 vs. 0.0) (gene ABHD6): −1.186
Fold-Change (4.0 vs. 0.0) (gene ABI3BP, PBMC, six months of LAQ treatment): −1.115
Fold-Change (4.0 vs. 0.0) (gene ABO): −1.19
Fold-Change (4.0 vs. 0.0) (gene ACCN2, PBMC, six months of LAQ treatment): −1.115
Fold-Change (4.0 vs. 0.0) (gene ACE2, after six months of LAQ): −1.14
Fold-Change (4.0 vs. 0.0) (gene ACE, after six months of LAQ): −1.129
Fold-Change (4.0 vs. 0.0) (gene ACRV1): −1.191
Fold-Change (4.0 vs. 0.0) (gene ACRV1, six months of treatment): −1.151
Fold-Change (4.0 vs. 0.0) (gene ACTN2, PBMC, six months of LAQ treatment): −1.122
Fold-Change (4.0 vs. 0.0) (gene ACTN2, after six months of LAQ): −1.143
Fold-Change (4.0 vs. 0.0) (gene ACVR1B): −1.191
Fold-Change (4.0 vs. 0.0) (gene ADAM5P, six months of treatment): −1.1589
Fold-Change (4.0 vs. 0.0) (gene ADAM 18, six months of treatment): −1.155
Fold-Change (4.0 vs. 0.0) (gene ADAM22, after six months of LAQ): −1.247
Fold-Change (4.0 vs. 0.0) (gene ADAMTS7, PBMC, six months of LAQ treatment): −1.112
